Earlier results, collected in patent US20110136157A1, “Copper regulation evaluation and therapy” (priority 2005, published 2011).
At least one structure is not confirmed: it was looked up by name or label, or the drawing left a doubt.

Test system: serum ferritin
Conditions: reportedly; not replicated in subsequent studies

CC(=O)N(O)CCCCCNC(=O)CCC(=O)N(O)CCCCCNC(=O)CCC(=O)N(O)CCCCCN [deferoxamine]
ferritin levels: lowered increased ferritin levels
